1 substance from publication PMC11751086 can be followed below.

Chains of the proteins cited; added tags and fusions are not shown. Lines headed by an entry give the natural chain unless they say otherwise; changes in a name come on top.
UniProt P10275: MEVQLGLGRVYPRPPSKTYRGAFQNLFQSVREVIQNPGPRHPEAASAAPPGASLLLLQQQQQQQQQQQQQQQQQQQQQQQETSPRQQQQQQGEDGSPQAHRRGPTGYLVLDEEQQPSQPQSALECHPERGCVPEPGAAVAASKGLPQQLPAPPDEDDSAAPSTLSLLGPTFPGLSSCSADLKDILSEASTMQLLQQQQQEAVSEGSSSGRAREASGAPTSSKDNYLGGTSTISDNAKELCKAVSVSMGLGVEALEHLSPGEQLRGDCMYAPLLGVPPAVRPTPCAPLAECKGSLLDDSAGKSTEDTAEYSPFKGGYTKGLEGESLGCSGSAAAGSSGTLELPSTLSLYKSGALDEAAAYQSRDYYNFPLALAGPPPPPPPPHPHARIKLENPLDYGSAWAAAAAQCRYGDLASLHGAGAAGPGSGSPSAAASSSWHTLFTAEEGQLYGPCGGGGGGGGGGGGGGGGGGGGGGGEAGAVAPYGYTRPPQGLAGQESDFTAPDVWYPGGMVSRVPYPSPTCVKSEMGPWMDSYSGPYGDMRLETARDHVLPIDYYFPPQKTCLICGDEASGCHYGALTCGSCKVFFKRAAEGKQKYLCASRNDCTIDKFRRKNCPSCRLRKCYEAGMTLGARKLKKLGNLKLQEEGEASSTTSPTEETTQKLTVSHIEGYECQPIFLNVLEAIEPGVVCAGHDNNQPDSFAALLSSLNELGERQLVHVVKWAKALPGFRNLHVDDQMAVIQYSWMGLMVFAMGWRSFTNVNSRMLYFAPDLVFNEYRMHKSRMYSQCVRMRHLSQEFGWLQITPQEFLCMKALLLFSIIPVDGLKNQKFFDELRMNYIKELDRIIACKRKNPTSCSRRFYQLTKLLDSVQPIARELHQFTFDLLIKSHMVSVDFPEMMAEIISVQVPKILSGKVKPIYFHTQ
UniProt P05556: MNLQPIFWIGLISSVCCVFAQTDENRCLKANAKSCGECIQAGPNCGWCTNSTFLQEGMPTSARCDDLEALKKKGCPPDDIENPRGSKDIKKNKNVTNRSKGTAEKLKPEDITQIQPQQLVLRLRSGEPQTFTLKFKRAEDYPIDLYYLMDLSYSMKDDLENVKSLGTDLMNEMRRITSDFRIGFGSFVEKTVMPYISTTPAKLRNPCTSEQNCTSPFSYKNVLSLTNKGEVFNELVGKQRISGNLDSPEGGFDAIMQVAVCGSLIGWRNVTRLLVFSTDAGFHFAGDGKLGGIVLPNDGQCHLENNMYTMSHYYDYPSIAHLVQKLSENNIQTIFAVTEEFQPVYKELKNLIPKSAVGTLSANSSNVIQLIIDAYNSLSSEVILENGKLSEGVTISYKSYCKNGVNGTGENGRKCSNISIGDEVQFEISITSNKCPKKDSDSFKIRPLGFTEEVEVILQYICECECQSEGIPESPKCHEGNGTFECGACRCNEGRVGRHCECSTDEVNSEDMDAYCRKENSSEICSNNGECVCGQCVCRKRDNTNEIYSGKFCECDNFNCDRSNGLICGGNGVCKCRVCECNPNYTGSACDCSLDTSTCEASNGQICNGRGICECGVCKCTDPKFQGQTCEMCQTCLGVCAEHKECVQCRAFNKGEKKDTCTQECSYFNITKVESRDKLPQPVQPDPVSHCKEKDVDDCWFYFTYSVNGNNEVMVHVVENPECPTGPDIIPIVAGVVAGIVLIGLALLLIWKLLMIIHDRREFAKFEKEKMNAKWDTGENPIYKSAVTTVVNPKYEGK

These are yes or no findings as the source states them, for the method shown. Binding seen in cells or lysates may run through a third protein. Some entries that bind do so weakly or less than the wild type.

This test has as its target androgen receptor (human (endogenous in AMM16)) (UniProt P10275). Description: co-IP; AMM16 cells unchallenged or challenged for 20 min with 10 nM R1881, in the absence or presence of bicalutamide; lysate proteins immune-precipitated with anti-AR or control (ctrl IgG) antibodies; co-precipitated proteins revealed by WB.

For the substance “β1 integrin (from UniProt P05556 21-798) (receptor)”, the binding entry is “binds”.
